Laboratory results taken from PMC9114391.
Results are given in words; binding and its absence hold for the method and conditions named. In cells and extracts the contact can be indirect. A result given as binding can be weak or reduced; the word gives no strength.

Chains of the proteins cited; added tags and fusions are not shown. Lines headed by an entry give the natural chain unless they say otherwise; changes in a name come on top.
UniProt Q07335: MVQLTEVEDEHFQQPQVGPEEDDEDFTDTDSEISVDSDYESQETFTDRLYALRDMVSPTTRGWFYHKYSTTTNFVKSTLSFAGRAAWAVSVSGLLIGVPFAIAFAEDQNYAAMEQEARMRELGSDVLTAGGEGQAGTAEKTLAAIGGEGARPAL
UniProt V5ILY4: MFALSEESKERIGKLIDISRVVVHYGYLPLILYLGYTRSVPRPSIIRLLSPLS

Molecular target: Tom22 with a hexahistidine tag at the C-terminus (Neurospora crassa) (UniProt Q07335)
Experiment: co-purification (Ni-NTA affinity and anion exchange chromatography, SDS-PAGE with Coomassie staining); mitochondria solubilised in 1% n-dodecyl-β-D-maltoside, 20% glycerol, 300 mM NaCl, 20 mM imidazole, 20 mM Tris-HCl pH 8.5; His-tagged Tom22 held on Ni-NTA, eluted with 300 mM imidazole; then Resource Q, 0-500 mM KCl

Question: Which binding does the source give for Tom7 (from UniProt V5ILY4) here?
Answer: binds
